Among the data in patent US20060160201A1, “Three-dimensional structures of HDAC9 and Cabin1 and compound structures and methods related thereto” (priority 2003, published 2006) are binding values, retold here.

Amino acid sequences for entries named in this document (tags omitted). A change or cut given only in a name is not applied to a line headed by its entry.
UniProt Q9Y6J0: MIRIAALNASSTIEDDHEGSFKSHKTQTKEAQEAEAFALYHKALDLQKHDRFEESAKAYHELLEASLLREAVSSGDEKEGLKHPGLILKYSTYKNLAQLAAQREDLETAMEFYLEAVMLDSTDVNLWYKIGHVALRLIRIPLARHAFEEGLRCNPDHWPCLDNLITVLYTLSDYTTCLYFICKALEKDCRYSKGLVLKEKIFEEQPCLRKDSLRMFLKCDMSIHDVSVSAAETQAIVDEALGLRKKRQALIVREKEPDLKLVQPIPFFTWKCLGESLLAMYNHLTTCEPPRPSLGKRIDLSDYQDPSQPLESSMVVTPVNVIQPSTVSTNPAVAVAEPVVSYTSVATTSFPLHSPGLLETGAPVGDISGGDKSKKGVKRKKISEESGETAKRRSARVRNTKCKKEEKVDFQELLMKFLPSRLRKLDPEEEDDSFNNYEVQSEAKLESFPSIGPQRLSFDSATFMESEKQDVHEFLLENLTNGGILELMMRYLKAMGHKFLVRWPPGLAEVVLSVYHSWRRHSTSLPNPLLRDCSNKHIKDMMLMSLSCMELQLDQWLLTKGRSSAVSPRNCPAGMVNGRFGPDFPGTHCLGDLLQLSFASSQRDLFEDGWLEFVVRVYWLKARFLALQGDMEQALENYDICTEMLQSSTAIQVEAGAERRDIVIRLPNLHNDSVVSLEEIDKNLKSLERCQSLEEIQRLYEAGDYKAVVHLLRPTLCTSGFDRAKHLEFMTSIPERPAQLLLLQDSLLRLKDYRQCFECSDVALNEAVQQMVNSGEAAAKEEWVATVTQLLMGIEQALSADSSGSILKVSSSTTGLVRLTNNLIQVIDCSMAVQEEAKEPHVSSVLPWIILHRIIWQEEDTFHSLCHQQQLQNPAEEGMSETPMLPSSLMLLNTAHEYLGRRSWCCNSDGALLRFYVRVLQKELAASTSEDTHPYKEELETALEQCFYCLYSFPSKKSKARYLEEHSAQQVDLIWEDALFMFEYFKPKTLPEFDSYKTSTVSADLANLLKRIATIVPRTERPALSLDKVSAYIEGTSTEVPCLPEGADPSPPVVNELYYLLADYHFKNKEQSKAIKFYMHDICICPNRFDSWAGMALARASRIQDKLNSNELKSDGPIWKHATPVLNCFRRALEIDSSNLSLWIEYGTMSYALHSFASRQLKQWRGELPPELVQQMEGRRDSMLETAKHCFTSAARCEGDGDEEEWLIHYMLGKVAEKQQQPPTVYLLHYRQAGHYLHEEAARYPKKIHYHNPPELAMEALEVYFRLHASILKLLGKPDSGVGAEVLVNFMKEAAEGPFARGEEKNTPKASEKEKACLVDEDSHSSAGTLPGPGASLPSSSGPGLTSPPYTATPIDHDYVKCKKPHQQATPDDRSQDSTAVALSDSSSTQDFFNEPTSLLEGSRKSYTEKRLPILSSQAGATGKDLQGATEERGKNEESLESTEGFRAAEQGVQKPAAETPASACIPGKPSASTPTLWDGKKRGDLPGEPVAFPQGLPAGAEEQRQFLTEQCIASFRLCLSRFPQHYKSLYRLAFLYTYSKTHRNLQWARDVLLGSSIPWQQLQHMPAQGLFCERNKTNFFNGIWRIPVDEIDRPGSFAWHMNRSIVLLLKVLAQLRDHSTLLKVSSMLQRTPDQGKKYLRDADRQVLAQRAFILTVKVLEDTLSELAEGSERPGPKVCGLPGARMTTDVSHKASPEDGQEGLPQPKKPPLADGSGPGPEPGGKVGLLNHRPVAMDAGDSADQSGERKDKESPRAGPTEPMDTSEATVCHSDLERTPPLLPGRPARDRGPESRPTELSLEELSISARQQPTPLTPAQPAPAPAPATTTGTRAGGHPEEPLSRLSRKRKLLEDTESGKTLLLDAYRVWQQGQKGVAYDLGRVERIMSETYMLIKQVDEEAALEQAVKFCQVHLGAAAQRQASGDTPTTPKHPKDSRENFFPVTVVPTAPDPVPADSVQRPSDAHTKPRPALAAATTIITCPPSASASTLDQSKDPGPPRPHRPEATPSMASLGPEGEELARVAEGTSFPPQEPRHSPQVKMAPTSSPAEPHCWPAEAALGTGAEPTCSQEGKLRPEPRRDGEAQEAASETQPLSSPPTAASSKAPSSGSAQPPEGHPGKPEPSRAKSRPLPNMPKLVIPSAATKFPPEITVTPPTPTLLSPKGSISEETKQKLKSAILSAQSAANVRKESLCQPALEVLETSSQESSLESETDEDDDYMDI

Experiment [1] has as its target glutathione S-transferase (GST)-MEF2B fusion (human) (UniProt Q02080). Description: GST pull-down of [35S]-labeled Cabin1 (2144-2220) mutant on GST-MEF2B beads.
The target of experiment [2] is MEF2B (1-116) (human) (UniProt Q02080). In words: EMSA, titration of Cabin1 (2144-2220) to the MEF2B (1-116) dimer/DNA complex. (In general: A gel shift assay detects complexes by their altered migration in electrophoresis.)
Experiment [3] concerns the target T1, MEF2 (construct not stated) (human, UniProt Q02080 1-365, limits assumed).
T1 construct: The actual construct is unknown; also called MEF2B
T1 sequence: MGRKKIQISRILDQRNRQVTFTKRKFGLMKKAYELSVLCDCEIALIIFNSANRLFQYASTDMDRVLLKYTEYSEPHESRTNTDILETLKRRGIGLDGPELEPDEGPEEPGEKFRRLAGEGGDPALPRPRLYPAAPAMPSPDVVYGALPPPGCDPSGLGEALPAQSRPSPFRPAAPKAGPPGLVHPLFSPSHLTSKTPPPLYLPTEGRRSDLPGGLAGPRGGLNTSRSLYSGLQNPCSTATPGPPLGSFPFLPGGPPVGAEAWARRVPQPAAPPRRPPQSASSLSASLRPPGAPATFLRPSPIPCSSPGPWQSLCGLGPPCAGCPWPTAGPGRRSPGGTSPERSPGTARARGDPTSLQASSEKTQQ
Description: in vitro binding, not described.

These are yes or no findings as the source states them, for the method shown. For some of these results: In cells and extracts the contact can be indirect. Some entries that bind do so weakly or less than the wild type.

Take “Cabin1 (2144-2220) Gln70Trp mutant (from UniProt Q9Y6J0 2144-2220)”: the binding entry in experiment [1] is on record as “binds”. Turning to “Cabin1 (2144-2220), wild type (from UniProt Q9Y6J0 2144-2220)”, the binding entry in experiment [2] is on record as “binds”. In the case of “Cabin1 (construct not stated) (from UniProt Q9Y6J0 1-2220)”, the binding result in experiment [3] is given as “binds”. For the substance “Cabin1 (2144-2220) Gln70Ala mutant (from UniProt Q9Y6J0 2144-2220)”, the binding entry in experiment [1] is recorded as “binds”.
